Taken from: PubChem BioAssay AID504808 (Drosophila RNAi Screening Center, 2011)

- Purpose: 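Fly genes required to hold E2F transcription in check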 (primary screen)
- Cells: Drosophila S2 cells
- Knock-down reagent: long dsRNA against Drosophila genes
- Read-out: 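Dual luciferase plate measurements; E2F-specific signal taken as firefly over Renilla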
- Reading the numbers: E2F firefly: higher = more E2F reporter activity; Renilla normaliser: higher = more normaliser reporter signal
- Hit rule: 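a knock-down counted as active when the firefly/Renilla E2F signal rose above 50%, a threshold chosen arbitrarily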
In all, the deposit lists about 21,000 reagents; shown is a random part of those with a known target gene and a result. Over the whole deposit, 18 (0.084%) were called active. 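Raw counts without plate normalisation, one of two replicates; the ratio scores behind the calls were not deposited.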 Names joined by + are all predicted targets of the reagent. Not stated in the record: the amount of reagent, the time to read-out.

After knock-down of CG17648 [DRSC00508] the results were E2F firefly, rep 1 = 1.73e5; Renilla normaliser, rep 1 = 6297; inactive.
For CG17742 (retired record) [DRSC10285], the entry reads E2F firefly, rep 1 = 72438; Renilla normaliser, rep 1 = 3177; inactive.
dsh (dishevelled) [DRSC19803] showed E2F firefly, rep 1 = 1.23e5; Renilla normaliser, rep 1 = 5897; inactive.
Knock-down of CG2691 [DRSC19866] resulted in: E2F firefly, rep 1 = 7040; Renilla normaliser, rep 1 = 740; inactive.
CG15841 (retired record) + Acp33A [DRSC01859] scored E2F firefly, rep 1 = 1.60e5; Renilla normaliser, rep 1 = 5574; inactive.
After knock-down of CG16713 [DRSC00477], the record shows E2F firefly, rep 1 = 1.49e5; Renilla normaliser, rep 1 = 5340; inactive.
With knock-down of RpL17 (Ribosomal protein L17) [DRSC18293] the results were E2F firefly, rep 1 = 5963; Renilla normaliser, rep 1 = 896; inactive.
Against CG11248 [DRSC11644], the values are E2F firefly, rep 1 = 68225; Renilla normaliser, rep 1 = 3685; inactive.
Silencing of Mgat1 [DRSC07463] resulted in: E2F firefly, rep 1 = 99121; Renilla normaliser, rep 1 = 4251; inactive.
CG6125 [DRSC15970] showed E2F firefly, rep 1 = 1.01e5; Renilla normaliser, rep 1 = 5247; inactive.
For HUWE1 [DRSC20089], the values are E2F firefly, rep 1 = 1.87e5; Renilla normaliser, rep 1 = 7270; inactive.
CG34107 [DRSC14554] showed E2F firefly, rep 1 = 1.44e5; Renilla normaliser, rep 1 = 6379; inactive.
Dronc (Death regulator Nedd2-like caspase) [DRSC11231] scored E2F firefly, rep 1 = 96979; Renilla normaliser, rep 1 = 4747; inactive.
After knock-down of CG4995 [DRSC02801] the results were E2F firefly, rep 1 = 77580; Renilla normaliser, rep 1 = 3516; inactive.
Depletion of clumsy [DRSC03111] gave: E2F firefly, rep 1 = 1.00e5; Renilla normaliser, rep 1 = 3774; inactive.
After knock-down of CG12828 [DRSC06177] the results were E2F firefly, rep 1 = 1.37e5; Renilla normaliser, rep 1 = 4753; inactive.
For Dbp73D (Dead box protein 73D) [DRSC11142] the deposit lists E2F firefly, rep 1 = 69536; Renilla normaliser, rep 1 = 3355; inactive.
Against E5 [DRSC13000], the values are E2F firefly, rep 1 = 68026; Renilla normaliser, rep 1 = 2118; inactive.
E5 [DRSC16585] scored E2F firefly, rep 1 = 72707; Renilla normaliser, rep 1 = 5383; inactive.

2 entries already listed, ordered by “Renilla normaliser, rep 1”, high to low:
Dronc (Death regulator Nedd2-like caspase) [DRSC11231] | E2F firefly, rep 1: 96979; Renilla normaliser, rep 1: 4747; outcome: inactive
CG4995 [DRSC02801] | E2F firefly, rep 1: 77580; Renilla normaliser, rep 1: 3516; outcome: inactive
